We go through one substance from patent US20080221014A1.

Sequences of proteins named here, by UniProt entry; tags and fusion partners are left off. A change or cut given only in a name is not applied to a line headed by its entry. Residues count along the entry.
UniProt P08069, residues 31-1367: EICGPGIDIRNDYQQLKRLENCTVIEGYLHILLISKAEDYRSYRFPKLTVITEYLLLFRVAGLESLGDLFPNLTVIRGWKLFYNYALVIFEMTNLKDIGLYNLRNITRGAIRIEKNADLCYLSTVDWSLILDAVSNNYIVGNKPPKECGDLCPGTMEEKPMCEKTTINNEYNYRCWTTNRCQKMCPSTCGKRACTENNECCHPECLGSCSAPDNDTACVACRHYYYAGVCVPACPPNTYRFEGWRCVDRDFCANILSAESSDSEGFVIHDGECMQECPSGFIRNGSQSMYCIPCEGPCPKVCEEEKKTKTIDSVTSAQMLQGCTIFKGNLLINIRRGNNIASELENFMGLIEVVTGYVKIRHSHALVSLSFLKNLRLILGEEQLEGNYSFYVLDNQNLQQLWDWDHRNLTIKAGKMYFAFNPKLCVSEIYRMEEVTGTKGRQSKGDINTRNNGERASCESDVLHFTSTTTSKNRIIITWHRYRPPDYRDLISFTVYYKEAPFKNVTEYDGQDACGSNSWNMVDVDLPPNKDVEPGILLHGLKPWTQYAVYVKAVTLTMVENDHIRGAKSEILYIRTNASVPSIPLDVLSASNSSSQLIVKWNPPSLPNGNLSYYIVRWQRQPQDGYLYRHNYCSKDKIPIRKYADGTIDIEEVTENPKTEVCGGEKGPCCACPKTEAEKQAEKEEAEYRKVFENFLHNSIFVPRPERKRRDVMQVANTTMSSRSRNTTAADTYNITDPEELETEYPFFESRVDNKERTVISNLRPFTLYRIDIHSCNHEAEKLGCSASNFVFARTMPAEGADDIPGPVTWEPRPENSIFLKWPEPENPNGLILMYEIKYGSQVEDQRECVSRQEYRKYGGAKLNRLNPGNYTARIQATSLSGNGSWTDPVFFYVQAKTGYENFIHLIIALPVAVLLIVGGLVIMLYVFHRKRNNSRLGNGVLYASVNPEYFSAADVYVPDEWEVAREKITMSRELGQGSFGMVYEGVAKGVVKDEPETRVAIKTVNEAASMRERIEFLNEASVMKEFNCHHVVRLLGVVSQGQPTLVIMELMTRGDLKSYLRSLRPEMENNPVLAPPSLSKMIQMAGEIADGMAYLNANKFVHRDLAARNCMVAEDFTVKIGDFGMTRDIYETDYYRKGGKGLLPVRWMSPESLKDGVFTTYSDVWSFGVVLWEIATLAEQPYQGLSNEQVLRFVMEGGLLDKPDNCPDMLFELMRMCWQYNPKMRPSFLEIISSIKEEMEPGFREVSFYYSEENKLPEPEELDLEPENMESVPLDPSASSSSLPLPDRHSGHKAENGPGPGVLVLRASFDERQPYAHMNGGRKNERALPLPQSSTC

Results are given in words; binding and its absence hold for the method and conditions named. Binding seen in cells or lysates may run through a third protein. Some results given as binding are weak or reduced against the parent protein; the word gives no strength.

This test has as its target IGF1R (insulin-like growth factor 1 receptor), endogenous in glioma cells (human) (UniProt P08069). Briefly: co-immunoprecipitation: anti-PIK3R3 IP from glioma cell lysates, western blot with anti-IGF1R beta antibody. (Immunoblotting shows a protein as a band on a membrane.)

In the case of “PIK3R3 polypeptide (regulatory subunit of PI3-kinase), endogenous in glioma cells (from UniProt Q92569 1-461)”, the binding result was “binds”.
